# Source: the supplement of paper PMC3334620
# The full ranking holds about 33,000 sequences; the median of “E-score (-0.5 to 0.5)” is about -0.016, and the highest 2% start at about 0.3. This is one part of the list.
# Target: T1, Yer184c (UniProt P39961)
# T1 sequence: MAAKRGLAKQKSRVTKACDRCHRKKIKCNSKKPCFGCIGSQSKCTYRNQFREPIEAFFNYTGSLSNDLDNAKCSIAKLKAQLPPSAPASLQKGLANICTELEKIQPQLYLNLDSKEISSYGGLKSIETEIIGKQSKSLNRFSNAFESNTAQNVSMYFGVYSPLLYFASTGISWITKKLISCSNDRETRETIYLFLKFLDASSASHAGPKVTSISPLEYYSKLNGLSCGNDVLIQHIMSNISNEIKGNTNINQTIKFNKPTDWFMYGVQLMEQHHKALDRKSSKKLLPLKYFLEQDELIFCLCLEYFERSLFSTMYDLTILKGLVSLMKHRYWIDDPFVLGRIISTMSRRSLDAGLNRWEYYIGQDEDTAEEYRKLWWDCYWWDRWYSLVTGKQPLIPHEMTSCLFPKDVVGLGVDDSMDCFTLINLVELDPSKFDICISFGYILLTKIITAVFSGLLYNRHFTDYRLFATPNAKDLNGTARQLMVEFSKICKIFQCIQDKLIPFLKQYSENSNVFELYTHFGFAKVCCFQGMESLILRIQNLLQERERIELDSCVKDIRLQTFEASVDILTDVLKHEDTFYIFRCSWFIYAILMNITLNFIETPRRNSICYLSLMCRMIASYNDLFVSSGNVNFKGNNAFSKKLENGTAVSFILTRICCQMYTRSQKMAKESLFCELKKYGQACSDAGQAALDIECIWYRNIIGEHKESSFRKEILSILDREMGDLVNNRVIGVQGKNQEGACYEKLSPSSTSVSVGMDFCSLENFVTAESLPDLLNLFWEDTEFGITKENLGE
# Test: PBM E-score (8-mer binding enrichment) (E-score (-0.5 to 0.5)); higher = stronger / more preferred TF binding
# Conditions: protein concentration: 100 nM; construct: GST-full length
# Summary of the method: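 Using PURExpress in vitro transcription/translation, GST-tagged yeast transcription factors were made in full-length or DNA-binding-domain form. These were applied at about 100-200 nM to double-stranded universal all-10-mer Agilent arrays, and bound protein was detected with fluorescent anti-GST. Scans were normalised with masliner before the Universal PBM Analysis Suite assigned E-scores to ungapped eight-base words pooled with their reverse complements.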
row,Sequence,PBM E-score
1,AAGCAATA,-0.106
2,ACATTAAC,0.0339
3,AGTTCCGC,0.305
4,ACGAGGAT,-0.132
5,CTCCTTAC,-0.118
6,AGCGTCCT,-0.172
7,GTTTTTCA,0.156
8,ATCGCATA,0.104
9,GAAAACCA,-0.0101
10,ATGGGATA,-0.295
11,TGACTCAA,-0.0362
12,ATCCAAAT,0.0417
13,GCGGGCCC,0.0335
14,CCCTCTTC,-0.386
15,ATTCCCAA,-0.0678
16,ACTGCTCA,0.0955
17,GGTCCTTA,0.0747
18,AGATTCCG,0.338
19,CATATTAA,0.256
20,ACAGCCGG,0.343
21,ACCAAGCA,-0.111
22,AGTTATGC,0.0743
23,ACCGCCTA,-0.152
24,ACAGCACC,-0.0581
25,CCATTTTC,0.0722

row,Sequence,PBM E-score
1,GGTTTGGA,-0.135
2,ATGTCGTG,-0.082
3,AGTTATAA,0.0816
4,CTAATTCA,-0.0318
5,CGCATGTA,-0.136
6,CGTACAAG,-0.0379
7,AAGCTCGA,0.242
8,ACTGTTAC,-0.257
9,ATGTCTGA,-0.0779
10,CAGTGAAA,0.165
11,ATCCAGCA,-0.0307
12,CCGCATAC,0.0315
13,GCGTATAC,0.0684
14,GGTCAGCA,-0.0368
15,AGGAGAAC,-0.157
16,CGTTGTAC,0.0468
17,ATGGAGTA,-0.0278
18,GTGAGGGA,-0.252
19,TAAGCACA,0.189
20,GTCCTCAA,0.0117
21,AATTCTGA,0.128
22,CGGGTCCC,-0.255
23,GACGCGGA,0.136
24,CAACGTCG,-0.0505
25,ATCCCATG,-0.297

row,Sequence,PBM E-score
1,ATGTGCTC,0.0673
2,CTCAAGGC,-0.0742
3,ATACACTC,0.12
4,GGCGCGTA,-0.194
5,GATATTCC,0.16
6,CGCATATA,-0.0227
7,CCCCCCTA,-0.437
8,TATGCACA,-0.112
9,ACTTTACC,0.152
10,TGGGATAA,-0.0513
11,TCCTAGGA,-0.0423
12,ATGATTCC,0.162
13,GAGTCGAA,0.0806
14,CTTCAGGA,0.0876
15,AGTCAAAA,0.176
16,ACACTTCA,0.0716
17,CCAGCATA,-0.183
18,ATCGGTCC,0.0402
19,CCTGATAG,-0.287
20,AGAGCTCG,0.0783
21,GTCTCGGA,0.227
22,AGGCTTGC,-0.319
23,ACATCGGT,-0.155
24,AAGAGCAA,-0.0457
25,CCCATAGA,-0.292

row,Sequence,PBM E-score
1,CGCTAAAA,-0.0854
2,GTGCGCAC,0.162
3,ACCGCCAG,-0.144
4,AAGTGACG,0.057
5,GAAAGTAA,0.0735
6,CTTGACCC,0.0538
7,GTTCTATA,0.118
8,AGATCAGG,-0.0506
9,AGCGTCAC,-0.232
10,CTTCATGC,-0.0559
11,AATGACAT,0.0886
12,TAAAGTAA,0.0272
13,CATTGAAC,0.166
14,ACCTCAAG,-0.127
15,AGCACGGG,-0.0491
16,ACGTGCCG,0.233
17,CAATAGAG,-0.242
18,CATACCTA,-0.249
19,GGAGCAGA,-0.0207
20,AGAAGGTC,-0.112
21,GAGGTGGA,-0.166
22,GCCGAGGA,0.335
23,AGAAGTAT,0.103
24,CGCGTAGA,0.013
25,ACCGAAGG,0.115

row,Sequence,PBM E-score
1,TCGTGACA,0.112
2,CCCCCGGG,0.0845
3,CTGCGGAC,0.0668
4,CTAGTTAA,0.0302
5,GGGTCCAC,-0.28
6,AACTCGGC,0.273
7,ACTGCAGA,-0.00118
8,ACCACAGC,-0.0729
9,CTGGAAAA,0.188
10,TACTAAGA,0.0512
11,CGAGTCCG,0.247
12,AAGACTGG,-0.198
13,CGACAGAG,-0.212
14,CCTCGTCG,0.0219
15,CAGGGGTC,-0.227
16,TGGAGCCA,-0.228
17,AGATAGGC,-0.207
18,CAAGCGGG,-0.208
19,AACTACTT,-0.0125
20,GGGGTCAC,-0.23
21,AGAAATTA,0.354
22,AGAGGAGA,-0.131
23,CAACGAAC,0.0476
24,CTGCCGGC,0.369
25,GTGGAACA,0.0598

# A run of entries taken from the entries so far, as a working copy:
row,Sequence,PBM E-score
21,GTCTCGGA,0.227
22,AGGCTTGC,-0.319

# Copied from the list:
# PBM E-score, ATCCAAAT is entered as 0.0417
# PBM E-score, AGCGTCCT is entered as -0.172

# More entries:

row,Sequence,PBM E-score
1,CTACCTAC,0.0349
2,CACAGGTA,-0.0737
3,ACCCTTCA,-0.142
4,CCTTATAG,-0.0177
5,TAGATTGA,0.144
6,ACTAAGCC,0.0886
7,CCATATCG,0.0792
8,GAAACAGA,0.136
9,TACCCACA,-0.0892
10,TCTCCCCA,-0.189
11,ATGCCGGA,0.36
12,TAAGGGTA,-0.27
13,GGCCGGTA,0.248
14,CAATAACC,0.13
15,CCGGCTCA,0.362
16,ATGCCGAG,0.346
17,ATTCCAAT,0.0583
18,AAGGCGCG,-0.244
19,ATGCAATC,-0.0539
20,ATGGACTA,0.031
21,CGTATGAA,0.206
22,CACACGAA,0.0689
23,CTTCTTTA,0.0279
24,AAACCCGC,0.135
25,TGGTTACA,-0.0662

row,Sequence,PBM E-score
1,ATACCTTC,-0.0606
2,ACAGACTA,-0.027
3,ACCAGAAG,-0.13
4,CAGGCCGC,0.00977
5,GTAAATTA,-0.0205
6,ACCTTCAG,-0.205
7,ATTTCCGG,0.445
8,ATCTTCAG,0.0939
9,GTGTGGCA,-0.193
10,AAATTGGT,0.105
11,CACCTTGG,-0.194
12,ACGTGGGC,-0.254
13,GCAGGCTA,-0.172
14,CTGCCGGA,0.349
15,ATGGCTTC,0.0134
16,ACTGAGAC,0.0598
17,ATTACGCC,0.0362
18,CGGGTGGA,-0.0511
19,TCGGTTAA,0.333
20,AAATATCC,0.27
21,ACGCCGAC,0.198
22,CTGCGAGC,-0.0863
